This passage reports binding results from article PMC6538628.

Chains of the proteins cited; added tags and fusions are not shown. Residues count along the entry.
UniProt P35968, residues 20-1356: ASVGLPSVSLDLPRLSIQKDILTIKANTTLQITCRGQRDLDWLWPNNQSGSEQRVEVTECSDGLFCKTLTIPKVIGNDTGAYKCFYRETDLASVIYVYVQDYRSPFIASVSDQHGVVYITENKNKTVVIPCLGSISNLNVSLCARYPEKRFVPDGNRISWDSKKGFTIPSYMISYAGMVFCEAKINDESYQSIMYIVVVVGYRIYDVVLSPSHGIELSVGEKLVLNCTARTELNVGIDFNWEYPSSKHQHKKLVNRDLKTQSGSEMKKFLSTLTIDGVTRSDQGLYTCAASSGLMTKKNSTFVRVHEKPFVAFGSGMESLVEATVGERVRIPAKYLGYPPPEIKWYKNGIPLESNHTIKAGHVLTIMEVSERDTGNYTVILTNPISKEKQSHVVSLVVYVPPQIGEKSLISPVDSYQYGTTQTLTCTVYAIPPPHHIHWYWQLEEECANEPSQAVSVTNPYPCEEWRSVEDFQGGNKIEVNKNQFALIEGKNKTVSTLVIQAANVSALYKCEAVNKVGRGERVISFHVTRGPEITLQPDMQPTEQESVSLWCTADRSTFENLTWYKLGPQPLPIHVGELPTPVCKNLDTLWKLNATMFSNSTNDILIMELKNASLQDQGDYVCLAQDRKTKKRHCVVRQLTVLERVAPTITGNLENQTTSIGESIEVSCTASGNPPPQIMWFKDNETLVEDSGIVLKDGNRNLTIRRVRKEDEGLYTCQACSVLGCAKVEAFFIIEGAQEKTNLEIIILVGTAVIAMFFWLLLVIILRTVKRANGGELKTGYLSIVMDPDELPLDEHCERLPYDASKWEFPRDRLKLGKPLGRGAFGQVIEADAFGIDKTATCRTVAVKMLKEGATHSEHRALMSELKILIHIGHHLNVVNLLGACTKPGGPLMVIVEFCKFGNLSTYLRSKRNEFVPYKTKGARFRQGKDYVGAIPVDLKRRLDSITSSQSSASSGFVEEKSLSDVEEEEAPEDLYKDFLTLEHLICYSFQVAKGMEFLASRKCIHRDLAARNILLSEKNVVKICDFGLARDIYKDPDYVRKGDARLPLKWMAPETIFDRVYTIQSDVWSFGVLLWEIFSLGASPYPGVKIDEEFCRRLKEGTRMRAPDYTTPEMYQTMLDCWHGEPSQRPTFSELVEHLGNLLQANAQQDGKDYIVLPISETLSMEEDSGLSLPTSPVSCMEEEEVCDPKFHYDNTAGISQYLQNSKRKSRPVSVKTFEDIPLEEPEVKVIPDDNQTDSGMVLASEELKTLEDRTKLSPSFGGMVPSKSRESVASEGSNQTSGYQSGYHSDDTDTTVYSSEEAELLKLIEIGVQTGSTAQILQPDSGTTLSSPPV
UniProt O55005, residues 26-1651: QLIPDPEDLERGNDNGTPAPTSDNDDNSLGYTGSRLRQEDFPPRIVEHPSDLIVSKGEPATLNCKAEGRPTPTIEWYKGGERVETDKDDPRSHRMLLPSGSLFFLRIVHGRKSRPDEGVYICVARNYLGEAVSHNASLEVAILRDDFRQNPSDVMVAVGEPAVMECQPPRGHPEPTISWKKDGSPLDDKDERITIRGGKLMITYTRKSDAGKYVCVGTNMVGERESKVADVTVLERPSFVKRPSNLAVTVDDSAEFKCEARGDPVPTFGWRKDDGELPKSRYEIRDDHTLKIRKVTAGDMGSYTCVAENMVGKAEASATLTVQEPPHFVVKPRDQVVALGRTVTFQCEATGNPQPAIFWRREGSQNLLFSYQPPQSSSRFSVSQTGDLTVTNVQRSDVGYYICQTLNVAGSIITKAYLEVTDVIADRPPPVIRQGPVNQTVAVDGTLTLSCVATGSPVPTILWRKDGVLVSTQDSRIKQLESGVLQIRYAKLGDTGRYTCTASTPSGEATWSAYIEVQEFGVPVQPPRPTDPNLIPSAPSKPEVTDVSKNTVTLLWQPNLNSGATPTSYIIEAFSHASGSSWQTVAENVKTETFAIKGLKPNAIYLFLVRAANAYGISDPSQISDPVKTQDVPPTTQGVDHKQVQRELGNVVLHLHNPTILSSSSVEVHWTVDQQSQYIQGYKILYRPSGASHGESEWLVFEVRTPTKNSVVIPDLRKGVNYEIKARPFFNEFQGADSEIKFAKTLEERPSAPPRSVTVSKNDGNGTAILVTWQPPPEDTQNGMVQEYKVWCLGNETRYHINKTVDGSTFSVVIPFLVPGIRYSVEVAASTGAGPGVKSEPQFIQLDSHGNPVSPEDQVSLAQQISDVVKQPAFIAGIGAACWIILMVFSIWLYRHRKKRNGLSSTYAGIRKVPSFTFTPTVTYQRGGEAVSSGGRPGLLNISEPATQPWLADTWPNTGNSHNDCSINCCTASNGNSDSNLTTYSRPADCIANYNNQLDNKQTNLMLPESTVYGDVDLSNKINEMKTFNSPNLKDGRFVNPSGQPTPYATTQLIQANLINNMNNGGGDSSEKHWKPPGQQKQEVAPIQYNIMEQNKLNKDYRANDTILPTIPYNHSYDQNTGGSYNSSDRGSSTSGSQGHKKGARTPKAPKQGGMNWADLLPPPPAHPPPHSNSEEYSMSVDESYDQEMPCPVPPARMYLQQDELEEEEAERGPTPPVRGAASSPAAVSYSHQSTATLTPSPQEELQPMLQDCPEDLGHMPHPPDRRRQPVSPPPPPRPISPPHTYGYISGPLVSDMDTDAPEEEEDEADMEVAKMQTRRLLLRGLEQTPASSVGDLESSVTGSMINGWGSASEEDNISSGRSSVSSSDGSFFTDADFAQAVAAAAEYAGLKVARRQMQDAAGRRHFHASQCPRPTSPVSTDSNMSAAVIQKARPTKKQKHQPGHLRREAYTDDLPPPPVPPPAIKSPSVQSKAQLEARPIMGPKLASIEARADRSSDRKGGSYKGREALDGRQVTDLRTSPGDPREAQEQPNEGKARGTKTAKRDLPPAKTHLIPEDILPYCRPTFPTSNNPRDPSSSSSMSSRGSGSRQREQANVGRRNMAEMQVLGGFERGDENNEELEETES
UniProt Q9Y6N7, residues 26-1651: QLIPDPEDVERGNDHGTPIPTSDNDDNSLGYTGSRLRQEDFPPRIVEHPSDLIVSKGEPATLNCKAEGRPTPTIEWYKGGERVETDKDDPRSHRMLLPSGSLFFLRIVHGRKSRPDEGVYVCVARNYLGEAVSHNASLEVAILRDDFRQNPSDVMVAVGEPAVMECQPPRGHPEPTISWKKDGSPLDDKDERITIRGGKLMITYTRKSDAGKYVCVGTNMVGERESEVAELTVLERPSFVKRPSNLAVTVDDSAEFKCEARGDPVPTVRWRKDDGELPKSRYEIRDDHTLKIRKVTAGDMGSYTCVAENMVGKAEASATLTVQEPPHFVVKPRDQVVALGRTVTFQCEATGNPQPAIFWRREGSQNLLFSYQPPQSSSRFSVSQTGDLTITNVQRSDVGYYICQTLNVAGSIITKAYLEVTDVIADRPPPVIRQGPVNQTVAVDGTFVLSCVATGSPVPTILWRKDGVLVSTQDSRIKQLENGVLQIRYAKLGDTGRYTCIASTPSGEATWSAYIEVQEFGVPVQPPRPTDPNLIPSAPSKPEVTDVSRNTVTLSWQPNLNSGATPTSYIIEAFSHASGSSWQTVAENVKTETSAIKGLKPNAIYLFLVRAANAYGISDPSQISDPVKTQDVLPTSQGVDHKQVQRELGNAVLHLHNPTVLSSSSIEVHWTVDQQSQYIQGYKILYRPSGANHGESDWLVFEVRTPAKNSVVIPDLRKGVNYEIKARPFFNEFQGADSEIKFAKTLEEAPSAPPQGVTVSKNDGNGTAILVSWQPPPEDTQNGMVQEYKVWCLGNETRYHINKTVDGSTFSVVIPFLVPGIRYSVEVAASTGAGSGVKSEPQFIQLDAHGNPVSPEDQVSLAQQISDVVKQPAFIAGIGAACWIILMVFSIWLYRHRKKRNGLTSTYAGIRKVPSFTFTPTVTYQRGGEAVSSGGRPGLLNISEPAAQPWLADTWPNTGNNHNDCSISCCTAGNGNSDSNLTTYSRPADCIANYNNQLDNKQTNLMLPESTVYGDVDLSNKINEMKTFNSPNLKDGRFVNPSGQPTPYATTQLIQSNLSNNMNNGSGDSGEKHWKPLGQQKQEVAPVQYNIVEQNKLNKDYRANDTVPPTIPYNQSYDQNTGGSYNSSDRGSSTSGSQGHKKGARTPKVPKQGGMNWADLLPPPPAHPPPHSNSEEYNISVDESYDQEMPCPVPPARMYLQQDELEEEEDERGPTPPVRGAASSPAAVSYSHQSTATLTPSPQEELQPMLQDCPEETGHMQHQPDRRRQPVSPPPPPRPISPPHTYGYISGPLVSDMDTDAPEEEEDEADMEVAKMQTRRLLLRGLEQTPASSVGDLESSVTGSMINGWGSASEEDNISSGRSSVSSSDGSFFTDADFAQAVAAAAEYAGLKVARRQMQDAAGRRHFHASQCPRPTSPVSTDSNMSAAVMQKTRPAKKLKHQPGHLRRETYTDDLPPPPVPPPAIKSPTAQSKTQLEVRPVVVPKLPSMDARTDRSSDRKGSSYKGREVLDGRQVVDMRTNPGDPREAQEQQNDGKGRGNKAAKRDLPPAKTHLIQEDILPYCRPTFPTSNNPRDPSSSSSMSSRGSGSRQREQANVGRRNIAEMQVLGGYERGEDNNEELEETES
UniProt Q7Z6B7: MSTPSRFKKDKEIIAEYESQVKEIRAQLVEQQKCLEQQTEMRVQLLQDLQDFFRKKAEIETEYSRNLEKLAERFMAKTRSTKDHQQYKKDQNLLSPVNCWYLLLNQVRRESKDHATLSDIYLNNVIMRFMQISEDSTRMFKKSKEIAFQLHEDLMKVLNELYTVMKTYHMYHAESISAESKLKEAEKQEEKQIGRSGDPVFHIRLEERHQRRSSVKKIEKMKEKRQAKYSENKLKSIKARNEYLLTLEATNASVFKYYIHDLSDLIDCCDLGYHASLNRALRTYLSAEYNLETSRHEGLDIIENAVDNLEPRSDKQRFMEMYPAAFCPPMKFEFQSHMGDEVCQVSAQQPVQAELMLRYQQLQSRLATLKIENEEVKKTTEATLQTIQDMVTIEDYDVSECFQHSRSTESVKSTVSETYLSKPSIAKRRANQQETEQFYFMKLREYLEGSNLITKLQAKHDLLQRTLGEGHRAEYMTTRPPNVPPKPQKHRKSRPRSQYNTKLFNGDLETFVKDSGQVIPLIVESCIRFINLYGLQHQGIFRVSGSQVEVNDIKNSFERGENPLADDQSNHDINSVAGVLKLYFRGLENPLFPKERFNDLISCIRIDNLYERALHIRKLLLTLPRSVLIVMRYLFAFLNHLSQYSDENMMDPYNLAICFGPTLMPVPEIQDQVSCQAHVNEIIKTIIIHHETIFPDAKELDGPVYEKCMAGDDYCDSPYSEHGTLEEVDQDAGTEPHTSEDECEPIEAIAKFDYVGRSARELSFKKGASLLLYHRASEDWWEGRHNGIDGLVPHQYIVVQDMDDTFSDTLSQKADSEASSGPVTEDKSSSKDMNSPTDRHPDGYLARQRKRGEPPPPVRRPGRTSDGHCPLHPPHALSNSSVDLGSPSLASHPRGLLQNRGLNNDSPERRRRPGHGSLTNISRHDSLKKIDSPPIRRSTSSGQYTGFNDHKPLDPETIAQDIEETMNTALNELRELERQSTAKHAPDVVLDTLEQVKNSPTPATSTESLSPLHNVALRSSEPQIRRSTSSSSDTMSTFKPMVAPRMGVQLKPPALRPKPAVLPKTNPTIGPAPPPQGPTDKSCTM

Results are given in words; binding and its absence hold for the method and conditions named. In cells and extracts the contact can be indirect. Some results given as binding are weak or reduced against the parent protein; the word gives no strength.

Experiment [1] addresses VEGF receptor 2 (human (endogenous in HUVEC)) (UniProt P35968). The experiment can be described thus: co-IP; VEGFR2 immunoprecipitation from HUVEC after VEGF (1.5 nM for 2'30'') or SLIT2 (3 nM for 2'30'') stimulation; western blot for ROBO1 and VEGFR2. On the technique in general: Immunoblotting shows a protein as a band on a membrane.
For experiment [2], the target named is siRNA resistant rat full-length ROBO1-GFP (rat) (UniProt O55005). The experiment can be described thus: co-IP; GFP immunoprecipitation (anti-GFP, protein A/G magnetic beads) from ROBO1/2 siRNA silenced HUVECs transduced with adenoviral ROBO1WT-GFP or ROBO1ΔCC3-GFP; lysis in 50 mM Tris-HCl pH 7.4, 50 mM NaCl, 0.5% Triton X-100; western blot; beads alone as control.

For experiment [3], the target named is Endophilin-A2 (human (endogenous in HUVEC)) (UniProt Q99961). The experiment can be described thus: co-IP; ENDOA2 immunoprecipitation (anti-ENDOA2, protein A/G magnetic beads) from HUVECs cultured in full, serum-containing medium; lysis in 50 mM Tris-HCl pH 7.4, 50 mM NaCl, 0.5% Triton X-100; overnight at 4 °C; western blot; beads alone as control.

Take “ROBO1 (from UniProt Q9Y6N7 26-1651) (receptor)”: the binding entry in experiment [1] is on record as “binds”.
For the substance “SLIT ROBO GTPase-activating protein 1 (from UniProt Q7Z6B7 1-1085)”, in experiment [2], the binding result is reported as “binds”.
As to “VEGF receptor 2 (from UniProt P35968 20-1356)”, the binding result in experiment [2] and in experiment [3] was “binds” throughout.
